These are yes or no findings as the source states them, for the method shown. A result given as binding can be weak or reduced; the word gives no strength. Where a sequence is shown, tags or fusion partners need not be part of it.
How the values were obtained:
sol VEGFR2 [1] = assay: SPR
sol VEGFR2 [2] = assay: SPR (Example 4)

binding (sol VEGFR2 [1]): binds | binding (sol VEGFR2 [2]): binds
B1: ABD-(GS)3-C7FL-His6 (anti-VEGFR2 adnectin linked to ABD at its N-terminus) (designed binder)
chain: MGQHDEAVDANSLAEAKVLANRELDKYGVSDYYKNLINNAKTVEGVKALIDEILAALPGSGSGSVSDVPRDLEVVAATPTSLLISWRHPHFPTRYYRITYGETGGNSPVQEFTVPLQPPTATISGLKPGVDYTITVYAVTDGRNGRLLSIPISINYRTGSGSHHHHHH

Source: US20160152686A1
